Data taken from patent US20040171566A1, “Antisense modulation of p38 mitogen activated protein kinase expression” (priority 1999, published 2004).
Some results were stated once for a whole list of compounds, not compound by compound. In the oligonucleotide strings, read from the 5' end, every base follows the letter of its sugar. An asterisk marks phosphorothioate; unmarked linkages are phosphodiester. Other units and linkages are bracketed, terminal groups are in braces. A string of capitals states the bases alone. e = 2'-O-(2-methoxyethyl) (MOE); [5mC] = 5-methylcytosine; d = 2'-deoxy (DNA)

The substances below were run on human p38β mRNA (assay: Inhibition of human p38β mRNA expression in HUVEC cells, Northern blot). Details: 100 nM oligonucleotide in 10 μg/ml LIPOFECTIN, four hours.
Format: cell-based
Protocol: The human Jurkat T-cell line (American Type Culture Collection, Manassas, Va.) was maintained in RPMI 1640 growth media supplemented with 10% fetal bovine serum (FBS; Hyclone, Logan, Utah). HUVEC cells (Clonetics, San Diego, Calif.) were cultivated in endothelial basal media supplemented with 10% FBS (Hyclone, Logan, Utah).
HUVEC cells were allowed to reach 75% confluency prior to use. The cells were washed twice with warm (37° C.) OPTI-MEM™ (Life Technologies). […]
Total mRNA was isolated using the RNEASY7 Mini Kit (Qiagen, Valencia, Calif.; similar kits from other manufacturers may also be used), separated on a 1% agarose gel, transferred to HYBOND™-N+ membrane (Amersham Pharmacia Biotech, Piscataway, N.J.), a positively charged nylon membrane, and probed. p38 MAPK probes were made using the Prime-A-Gene7 kit (Promega Corporation, Madison, Wis.), a random primer labeling kit, using mouse p38α or p38β cDNA as a template. […] The G3PDH probe was labeled with REDIVUE™ ^32P-dCTP (Amersham Pharmacia Biotech, Piscataway, N.J.) and Strip-EZ labelling kit (Ambion, Austin, Tex.). mRNA was quantitated by a PhosphoImager (Molecular Dynamics, Sunnyvale, Calif.). […]

| Substance | % mRNA INHIBITION |
| --- | --- |
| TCTGTGACCATAGGAGTGTG (antisense; chemistry not fully specified) [ISIS 17905] | > 85% |

The substances below were run on human p38α mRNA (assay: Human p38α mRNA expression in T-24 cells). Details: initial screen.

| Substance | inhibition (human p38α mRNA) |
| --- | --- |
| AATGATGGACTGAAATGGTC (eA*eA*eT*eG*eA*dT*dG*dG*dA*d[5mC]*dT*dG*dA*dA*dA*eT*eG*eG*eT*e[5mC]; antisense) [ISIS 100863] | > 40% |
| AGTCAAAGACTGAATATAGT (eA*eG*eT*e[5mC]*eA*dA*dA*dG*dA*d[5mC]*dT*dG*dA*dA*dT*eA*eT*eA*eG*eT; antisense) [ISIS 100871] | > 40% |
| GCAACAAGAGGCACTTGAAT (eG*e[5mC]*eA*eA*e[5mC]*dA*dA*dG*dA*dG*dG*d[5mC]*dA*d[5mC]*dT*eT*eG*eA*eA*eT; antisense) [ISIS 100877] | > 40% |
| TCAAAGGACTGATCATAAGG (eT*e[5mC]*eA*eA*eA*dG*dG*dA*d[5mC]*dT*dG*dA*dT*d[5mC]*dA*eT*eA*eA*eG*eG; antisense) [ISIS 100874] | > 40% |
| TGAATGTATATACTTTAGAC (eT*eG*eA*eA*eT*dG*dT*dA*dT*dA*dT*dA*d[5mC]*dT*dT*eT*eA*eG*eA*e[5mC]; antisense) [ISIS 100866] | > 40% |

What follows are substances tested on human p38β mRNA (assay: Human p38β mRNA expression in T-24 cells). Details: initial screen.

| Substance | inhibition (human p38β mRNA) |
| --- | --- |
| ACAGACGGAGCCGTAGGCGC (antisense eAe[5mC]eAeGeA*d[5mC]*dG*dG*dA*dG*d[5mC]*d[5mC]*dG*dT*dA*eGeGe[5mC]eGe[5mC]) [ISIS 107869] | > 40% |
| ATGGACGTGGCCGGCGTGAA (antisense eAeTeGeGeA*d[5mC]*dG*dT*dG*dG*d[5mC]*d[5mC]*dG*dG*d[5mC]*eGeTeGeAeA) [ISIS 107872] | > 40% |
| CAGGAATTGAACGTGCTCGT (antisense e[5mC]eAeGeGeA*dA*dT*dT*dG*dA*dA*d[5mC]*dG*dT*dG*e[5mC]eTe[5mC]eGeT) [ISIS 107873] | > 40% |
| CoCoCoToGsCsAsGsCsCsGsCsTsGsCsGoGoCoAoC (antisense e[5mC]e[5mC]e[5mC]eTeG*d[5mC]*dA*dG*d[5mC]*d[5mC]*dG*d[5mC]*dT*dG*d[5mC]*eGeGe[5mC]eAe[5mC]) [ISIS 100802] | > 40% |
| GTACGTTCTGCGCGCGTGGA (antisense eGeTeAe[5mC]eG*dT*dT*d[5mC]*dT*dG*d[5mC]*dG*d[5mC]*dG*d[5mC]*eGeTeGeGeA) [ISIS 107871] | > 40% |
| TGCCCTGGAGCAGCTCAGCC (antisense eTeGe[5mC]e[5mC]e[5mC]*dT*dG*dG*dA*dG*d[5mC]*dA*dG*d[5mC]*dT*e[5mC]eAeGe[5mC]e[5mC]) [ISIS 107878] | > 40% |
